According to the supplement of paper PMC12823440, “Inhibitors supercharge kinase turnover through native proteolytic circuits” (Nature, 2025):
The list shows a part of the results. The calls rarely recur for the same compound in another form.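 Kinases, fused to nanoluciferase, were expressed in K562 cells; luminescence was measured every 4 h from 2 to 18 h as percent of control (DMSO = 100%, positive control = 0%). A time point is decreased if signal falls significantly (2 sigma). Hits were called by the authors by a rule that is not shown; the count of time points alone does not decide it.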

By UniProt entry, the sequences of proteins in these tests, tags left out. Where a name states a change or a piece, a line headed by the entry shows the natural chain unless it says otherwise.
UniProt P00519, whole entry: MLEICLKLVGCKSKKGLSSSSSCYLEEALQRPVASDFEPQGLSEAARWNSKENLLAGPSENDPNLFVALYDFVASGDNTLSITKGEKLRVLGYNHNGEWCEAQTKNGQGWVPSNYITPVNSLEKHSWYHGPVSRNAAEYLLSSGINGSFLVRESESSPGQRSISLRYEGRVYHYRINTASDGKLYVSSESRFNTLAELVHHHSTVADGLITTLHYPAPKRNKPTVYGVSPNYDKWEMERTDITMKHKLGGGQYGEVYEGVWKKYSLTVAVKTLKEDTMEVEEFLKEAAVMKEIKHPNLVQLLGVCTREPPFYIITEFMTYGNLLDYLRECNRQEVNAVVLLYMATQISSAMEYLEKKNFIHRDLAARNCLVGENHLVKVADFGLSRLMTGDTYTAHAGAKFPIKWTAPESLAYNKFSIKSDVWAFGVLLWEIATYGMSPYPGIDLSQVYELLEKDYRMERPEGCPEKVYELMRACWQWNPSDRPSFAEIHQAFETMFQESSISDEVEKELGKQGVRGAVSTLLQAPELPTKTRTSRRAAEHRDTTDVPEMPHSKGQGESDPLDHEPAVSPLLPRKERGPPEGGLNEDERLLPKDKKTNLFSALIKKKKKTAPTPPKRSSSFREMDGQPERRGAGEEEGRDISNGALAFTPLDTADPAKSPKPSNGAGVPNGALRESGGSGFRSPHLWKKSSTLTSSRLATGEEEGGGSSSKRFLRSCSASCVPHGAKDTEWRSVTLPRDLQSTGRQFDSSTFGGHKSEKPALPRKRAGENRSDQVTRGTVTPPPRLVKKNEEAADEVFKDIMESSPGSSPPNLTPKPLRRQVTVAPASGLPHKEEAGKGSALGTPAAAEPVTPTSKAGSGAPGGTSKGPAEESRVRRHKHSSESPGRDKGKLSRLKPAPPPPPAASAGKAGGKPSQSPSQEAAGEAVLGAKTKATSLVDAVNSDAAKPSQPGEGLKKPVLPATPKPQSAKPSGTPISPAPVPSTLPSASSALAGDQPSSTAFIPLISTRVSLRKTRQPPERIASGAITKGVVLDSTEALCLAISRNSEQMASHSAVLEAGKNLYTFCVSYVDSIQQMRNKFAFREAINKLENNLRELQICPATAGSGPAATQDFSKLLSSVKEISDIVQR
UniProt Q00526: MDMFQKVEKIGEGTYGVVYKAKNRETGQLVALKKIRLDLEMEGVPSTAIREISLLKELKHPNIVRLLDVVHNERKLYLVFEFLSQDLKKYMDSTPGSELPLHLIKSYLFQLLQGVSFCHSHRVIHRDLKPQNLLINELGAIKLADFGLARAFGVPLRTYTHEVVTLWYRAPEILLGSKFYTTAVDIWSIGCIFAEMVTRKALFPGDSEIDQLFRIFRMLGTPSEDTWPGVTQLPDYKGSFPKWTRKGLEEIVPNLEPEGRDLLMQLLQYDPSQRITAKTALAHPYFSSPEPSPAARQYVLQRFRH
UniProt Q96GD4, whole entry: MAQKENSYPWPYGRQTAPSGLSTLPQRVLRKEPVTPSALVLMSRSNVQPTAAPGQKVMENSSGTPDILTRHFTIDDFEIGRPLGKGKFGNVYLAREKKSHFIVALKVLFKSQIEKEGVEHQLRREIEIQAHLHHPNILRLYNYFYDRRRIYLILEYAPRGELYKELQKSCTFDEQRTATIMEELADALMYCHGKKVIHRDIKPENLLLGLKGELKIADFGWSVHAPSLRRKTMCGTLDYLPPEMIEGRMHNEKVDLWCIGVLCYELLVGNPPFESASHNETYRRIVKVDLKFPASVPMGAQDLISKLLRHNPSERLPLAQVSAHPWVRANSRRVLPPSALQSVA
UniProt P51813: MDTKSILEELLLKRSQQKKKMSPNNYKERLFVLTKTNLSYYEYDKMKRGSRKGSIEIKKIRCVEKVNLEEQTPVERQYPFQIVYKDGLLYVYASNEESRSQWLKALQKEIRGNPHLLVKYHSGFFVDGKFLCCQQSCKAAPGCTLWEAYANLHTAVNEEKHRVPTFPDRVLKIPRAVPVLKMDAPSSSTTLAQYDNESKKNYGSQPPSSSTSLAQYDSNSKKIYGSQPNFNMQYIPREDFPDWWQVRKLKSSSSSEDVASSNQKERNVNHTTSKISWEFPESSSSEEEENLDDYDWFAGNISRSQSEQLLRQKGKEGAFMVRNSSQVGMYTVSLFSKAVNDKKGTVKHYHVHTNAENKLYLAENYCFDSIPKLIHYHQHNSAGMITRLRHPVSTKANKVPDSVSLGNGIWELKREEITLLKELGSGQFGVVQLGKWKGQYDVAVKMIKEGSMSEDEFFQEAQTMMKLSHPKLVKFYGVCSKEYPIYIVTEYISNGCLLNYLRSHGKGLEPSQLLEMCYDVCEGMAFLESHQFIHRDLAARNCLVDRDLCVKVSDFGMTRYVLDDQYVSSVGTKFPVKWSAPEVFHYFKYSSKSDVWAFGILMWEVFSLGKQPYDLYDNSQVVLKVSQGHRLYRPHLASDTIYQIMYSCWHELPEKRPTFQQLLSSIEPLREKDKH
UniProt Q13546: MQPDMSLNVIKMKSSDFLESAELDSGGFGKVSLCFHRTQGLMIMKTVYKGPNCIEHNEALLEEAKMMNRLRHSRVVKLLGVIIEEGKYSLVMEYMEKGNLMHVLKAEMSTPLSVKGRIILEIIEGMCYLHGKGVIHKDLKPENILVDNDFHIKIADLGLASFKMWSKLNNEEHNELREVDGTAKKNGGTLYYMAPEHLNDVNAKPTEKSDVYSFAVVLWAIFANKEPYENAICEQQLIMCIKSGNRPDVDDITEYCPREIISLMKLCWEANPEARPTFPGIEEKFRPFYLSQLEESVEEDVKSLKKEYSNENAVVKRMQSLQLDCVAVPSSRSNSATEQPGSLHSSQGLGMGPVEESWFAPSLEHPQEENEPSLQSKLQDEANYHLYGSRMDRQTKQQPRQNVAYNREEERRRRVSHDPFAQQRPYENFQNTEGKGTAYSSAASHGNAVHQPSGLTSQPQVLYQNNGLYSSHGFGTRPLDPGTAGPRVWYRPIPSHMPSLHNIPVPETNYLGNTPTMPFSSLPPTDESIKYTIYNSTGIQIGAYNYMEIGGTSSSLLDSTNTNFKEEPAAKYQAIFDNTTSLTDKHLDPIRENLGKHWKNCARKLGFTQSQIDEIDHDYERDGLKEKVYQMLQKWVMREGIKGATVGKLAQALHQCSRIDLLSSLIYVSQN
UniProt Q9UBF8: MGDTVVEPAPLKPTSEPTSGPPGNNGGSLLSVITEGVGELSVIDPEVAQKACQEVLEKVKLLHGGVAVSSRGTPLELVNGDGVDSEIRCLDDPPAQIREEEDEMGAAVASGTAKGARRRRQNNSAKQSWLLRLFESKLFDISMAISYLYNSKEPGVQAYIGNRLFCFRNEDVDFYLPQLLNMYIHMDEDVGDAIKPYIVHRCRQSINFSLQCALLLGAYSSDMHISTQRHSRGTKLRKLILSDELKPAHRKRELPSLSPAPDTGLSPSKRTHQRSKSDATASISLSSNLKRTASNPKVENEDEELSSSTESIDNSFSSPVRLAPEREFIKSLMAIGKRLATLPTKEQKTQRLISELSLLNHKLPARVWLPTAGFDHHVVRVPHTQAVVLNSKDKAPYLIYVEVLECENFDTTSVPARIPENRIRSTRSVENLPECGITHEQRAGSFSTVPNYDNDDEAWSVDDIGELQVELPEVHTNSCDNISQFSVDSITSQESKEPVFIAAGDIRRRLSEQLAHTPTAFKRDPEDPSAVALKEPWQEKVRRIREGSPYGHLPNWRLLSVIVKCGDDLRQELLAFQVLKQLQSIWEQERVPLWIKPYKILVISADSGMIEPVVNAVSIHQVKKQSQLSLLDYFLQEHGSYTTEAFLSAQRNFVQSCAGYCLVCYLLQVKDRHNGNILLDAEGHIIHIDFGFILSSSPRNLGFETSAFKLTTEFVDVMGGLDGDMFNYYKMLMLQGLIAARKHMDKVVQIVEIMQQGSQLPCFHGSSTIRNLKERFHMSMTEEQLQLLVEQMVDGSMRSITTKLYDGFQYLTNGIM
UniProt O75460: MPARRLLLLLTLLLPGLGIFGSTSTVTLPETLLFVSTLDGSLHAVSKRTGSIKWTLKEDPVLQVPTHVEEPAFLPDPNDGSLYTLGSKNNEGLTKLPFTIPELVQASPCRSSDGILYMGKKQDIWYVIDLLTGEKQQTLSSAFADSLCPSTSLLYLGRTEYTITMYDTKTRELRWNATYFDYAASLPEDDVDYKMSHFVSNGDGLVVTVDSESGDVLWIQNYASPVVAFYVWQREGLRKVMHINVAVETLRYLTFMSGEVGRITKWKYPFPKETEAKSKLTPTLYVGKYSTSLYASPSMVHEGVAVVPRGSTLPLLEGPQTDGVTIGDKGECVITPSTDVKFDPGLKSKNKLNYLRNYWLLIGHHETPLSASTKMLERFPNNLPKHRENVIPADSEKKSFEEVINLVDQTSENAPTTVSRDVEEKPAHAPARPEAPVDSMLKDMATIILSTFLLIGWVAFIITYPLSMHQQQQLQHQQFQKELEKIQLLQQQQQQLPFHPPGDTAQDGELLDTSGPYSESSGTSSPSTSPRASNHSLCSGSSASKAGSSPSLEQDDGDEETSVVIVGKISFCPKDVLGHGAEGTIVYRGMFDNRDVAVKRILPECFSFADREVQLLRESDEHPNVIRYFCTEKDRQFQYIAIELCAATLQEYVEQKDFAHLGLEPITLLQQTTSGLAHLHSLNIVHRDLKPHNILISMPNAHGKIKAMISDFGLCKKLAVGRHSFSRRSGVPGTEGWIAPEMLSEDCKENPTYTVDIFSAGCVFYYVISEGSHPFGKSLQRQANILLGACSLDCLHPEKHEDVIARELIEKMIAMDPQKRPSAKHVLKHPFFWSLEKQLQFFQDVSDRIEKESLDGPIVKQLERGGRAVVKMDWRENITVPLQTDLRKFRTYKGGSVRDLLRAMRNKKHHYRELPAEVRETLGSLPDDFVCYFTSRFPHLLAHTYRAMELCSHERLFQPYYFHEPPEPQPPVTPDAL
UniProt Q08345: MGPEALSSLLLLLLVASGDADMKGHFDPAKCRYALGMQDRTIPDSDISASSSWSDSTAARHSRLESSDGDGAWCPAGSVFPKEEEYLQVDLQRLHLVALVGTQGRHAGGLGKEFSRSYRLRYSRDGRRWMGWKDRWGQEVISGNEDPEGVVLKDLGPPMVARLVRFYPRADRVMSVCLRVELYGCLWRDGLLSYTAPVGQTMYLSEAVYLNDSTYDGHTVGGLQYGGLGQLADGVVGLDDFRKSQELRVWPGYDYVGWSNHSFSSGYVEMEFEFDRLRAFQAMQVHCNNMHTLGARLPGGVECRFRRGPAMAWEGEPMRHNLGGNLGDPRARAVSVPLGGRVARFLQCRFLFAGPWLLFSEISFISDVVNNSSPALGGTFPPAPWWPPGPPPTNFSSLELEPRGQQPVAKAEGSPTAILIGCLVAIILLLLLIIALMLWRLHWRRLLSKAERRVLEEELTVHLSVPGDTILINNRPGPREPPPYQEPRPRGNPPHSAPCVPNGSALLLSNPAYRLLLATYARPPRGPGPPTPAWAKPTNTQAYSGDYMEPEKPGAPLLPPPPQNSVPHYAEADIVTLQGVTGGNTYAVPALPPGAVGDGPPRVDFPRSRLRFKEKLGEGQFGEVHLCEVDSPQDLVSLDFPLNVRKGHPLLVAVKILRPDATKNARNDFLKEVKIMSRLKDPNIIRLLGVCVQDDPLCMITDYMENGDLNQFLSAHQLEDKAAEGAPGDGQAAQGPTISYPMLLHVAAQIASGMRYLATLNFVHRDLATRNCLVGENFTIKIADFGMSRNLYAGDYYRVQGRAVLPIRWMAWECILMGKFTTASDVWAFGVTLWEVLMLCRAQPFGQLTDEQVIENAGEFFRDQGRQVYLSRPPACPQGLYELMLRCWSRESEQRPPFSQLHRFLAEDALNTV

Assays:
Assay in all cases: number of time points (of 5) at which kinase-Nluc abundance scored as decreased, DMSO-normalised (count); higher = more persistent destabilization
[1] = compound: COc1ccc(S(=O)(=O)N(CCO)c2ccccc2CN(C)C/C=C/c2ccc(Cl)cc2)cc1 [KN-93 (phosphate)]; conditions: 2.5 µM; K562; 2-18 h
[2] = compound: COc1ccc(S(=O)(=O)Nc2ccccc2CN(C)C/C=C/c2ccc(Cl)cc2)cc1 [KN-92 (hydrochloride)]; conditions: 2.5 µM; K562; 2-18 h
[3] = compound: COc1ccc(S(=O)(=O)Nc2ccccc2CN(C)C/C=C/c2ccc(Cl)cc2)cc1 [KN-92 (phosphate)]; conditions: 2.5 µM; K562; 2-18 h
[4] = compound: COc1ccc2c(c1)C(c1ccc(F)cc1)=C(CN1CCCC1)CO2 [AX-024 hydrochloride]; conditions: 10 µM; K562; 2-18 h
[5] = compound: COc1ccc2c(c1)C(c1ccc(F)cc1)=C(CN1CCCC1)CO2; conditions: 10 µM; K562; 2-18 h
[6] = compound: COc1ccnc(C[S+]([O-])c2nc3cc(-n4cccc4)ccc3[nH]2)c1C [Ilaprazole (sodium)]; conditions: 10 µM; K562; 2-18 h
[7] = compound: COc1ccnc(C[S+]([O-])c2nc3cc(-n4cccc4)ccc3[nH]2)c1C [Ilaprazole]; conditions: 10 µM; K562; 2-18 h
[8] = compound: COc1ncc(F)cc1CNc1ccc(Cc2c[nH]c3ncc(C)cc23)c(F)n1 [PLX5622 (hemifumarate)]; conditions: 10 µM; K562; 2-18 h
[9] = compound: COc1ncc(F)cc1CNc1ccc(Cc2c[nH]c3ncc(C)cc23)c(F)n1; conditions: 10 µM; K562; 2-18 h
[10] = compound: CS(=O)(=O)N1CCN(Cc2cc3nc(-c4cccc5[nH]ncc45)nc(N4CCOCC4)c3s2)CC1 [Pictilisib (dimethanesulfonate)]; conditions: 10 µM; K562; 2-18 h
[11] = compound: CS(=O)(=O)N1CCN(Cc2cc3nc(-c4cccc5[nH]ncc45)nc(N4CCOCC4)c3s2)CC1 [Pictilisib]; conditions: 10 µM; K562; 2-18 h
[12] = compound: C[C@@H](N)[C@H]1CC[C@H](C(=O)Nc2ccncc2)CC1; conditions: 10 µM; K562; 2-18 h
[13] = compound: C[C@@H](N)c1ccc(C(=O)Nc2ccnc3[nH]ccc23)cc1; conditions: 10 µM; K562; 2-18 h
[14] = compound: C[C@H](CCC(=O)NCCS(=O)(=O)O)[C@H]1CC[C@H]2[C@@H]3[C@@H](O)C[C@@H]4C[C@H](O)CC[C@]4(C)[C@H]3CC[C@]12C [Tauroursodeoxycholate (dihydrate)]; conditions: 10 µM; K562; 2-18 h
[15] = compound: C[C@H](CCC(=O)NCCS(=O)(=O)O)[C@H]1CC[C@H]2[C@@H]3[C@@H](O)C[C@@H]4C[C@H](O)CC[C@]4(C)[C@H]3CC[C@]12C [Tauroursodeoxycholate (sodium)]; conditions: 10 µM; K562; 2-18 h
[16] = compound: C[C@H](Nc1cc(-c2cnn(C)c2)cc(Nc2cnccn2)n1)c1ccc(F)cc1 [Ilginatinib hydrochloride]; conditions: 2.5 µM; K562; 2-18 h
[17] = compound: C[C@H](Nc1cc(-c2cnn(C)c2)cc(Nc2cnccn2)n1)c1ccc(F)cc1 [Ilginatinib]; conditions: 2.5 µM; K562; 2-18 h
[18] = compound: C[S+]([O-])c1ccc(-c2nc(-c3ccc(F)cc3)c(-c3ccncc3)[nH]2)cc1; conditions: 10 µM; K562; 2-18 h
[19] = compound: Cc1[nH]c(/C=C2\C(=O)Nc3ccc(F)cc32)c(C)c1C(=O)NCCN1CCCC1 [Toceranib (phosphate)]; conditions: 2 µM; K562; 2-18 h
[20] = compound: Cc1[nH]c(/C=C2\C(=O)Nc3ccc(F)cc32)c(C)c1C(=O)NCCN1CCCC1 [Toceranib]; conditions: 2 µM; K562; 2-18 h

Measured: number of time points

ABL1 (UniProt P00519)
3: [16] | [17]
4: [10]
0: all other assays above

CDK3 (UniProt Q00526)
0: all assays above

AURKB (UniProt Q96GD4)
1: [17]
0: all other assays above

BMX (UniProt P51813)
3: [17]
not listed: [13]
0: all other assays above

EGFR_L718V (UniProt P00533)
1: [17]
not listed: [12] | [18]
0: all other assays above

RET_M918T (clone: RET_mut) (UniProt P07949)
not listed: [12]
0: all other assays above

RIPK1 (UniProt Q13546)
1: [17]
3: [16]
not listed: [13]
0: all other assays above

LMTK2 (UniProt Q8IWU2)
1: [17]
2: [16]
not listed: [13]
0: all other assays above

EGFR_L858R (UniProt P00533)
1: [16] | [17]
not listed: [12] | [18]
0: all other assays above

PIK4CB (UniProt Q9UBF8)
0: all assays above

BRAF (UniProt P15056)
0: all assays above

PRKCA (UniProt P17252)
not listed: [12]
0: all other assays above

ERN1 (UniProt O75460)
2: [16]
0: all other assays above

EGFR_L861Q (UniProt P00533)
2: [17]
5: [16]
not listed: [12] | [18]
0: all other assays above

DDR1 (UniProt Q08345)
3: [17]
2: [16]
0: all other assays above

ZAK (UniProt Q9NYL2)
not listed: [12]
0: all other assays above

EGFR_G719S (UniProt P00533)
2: [16] | [17]
not listed: [12] | [18]
0: all other assays above
